Experimental data as given in doi:10.1101/2024.12.17.628858.

The chains behind the UniProt entries cited, without tags or fusion partners. Residues count along the entry.
UniProt O75460, residues 19-977: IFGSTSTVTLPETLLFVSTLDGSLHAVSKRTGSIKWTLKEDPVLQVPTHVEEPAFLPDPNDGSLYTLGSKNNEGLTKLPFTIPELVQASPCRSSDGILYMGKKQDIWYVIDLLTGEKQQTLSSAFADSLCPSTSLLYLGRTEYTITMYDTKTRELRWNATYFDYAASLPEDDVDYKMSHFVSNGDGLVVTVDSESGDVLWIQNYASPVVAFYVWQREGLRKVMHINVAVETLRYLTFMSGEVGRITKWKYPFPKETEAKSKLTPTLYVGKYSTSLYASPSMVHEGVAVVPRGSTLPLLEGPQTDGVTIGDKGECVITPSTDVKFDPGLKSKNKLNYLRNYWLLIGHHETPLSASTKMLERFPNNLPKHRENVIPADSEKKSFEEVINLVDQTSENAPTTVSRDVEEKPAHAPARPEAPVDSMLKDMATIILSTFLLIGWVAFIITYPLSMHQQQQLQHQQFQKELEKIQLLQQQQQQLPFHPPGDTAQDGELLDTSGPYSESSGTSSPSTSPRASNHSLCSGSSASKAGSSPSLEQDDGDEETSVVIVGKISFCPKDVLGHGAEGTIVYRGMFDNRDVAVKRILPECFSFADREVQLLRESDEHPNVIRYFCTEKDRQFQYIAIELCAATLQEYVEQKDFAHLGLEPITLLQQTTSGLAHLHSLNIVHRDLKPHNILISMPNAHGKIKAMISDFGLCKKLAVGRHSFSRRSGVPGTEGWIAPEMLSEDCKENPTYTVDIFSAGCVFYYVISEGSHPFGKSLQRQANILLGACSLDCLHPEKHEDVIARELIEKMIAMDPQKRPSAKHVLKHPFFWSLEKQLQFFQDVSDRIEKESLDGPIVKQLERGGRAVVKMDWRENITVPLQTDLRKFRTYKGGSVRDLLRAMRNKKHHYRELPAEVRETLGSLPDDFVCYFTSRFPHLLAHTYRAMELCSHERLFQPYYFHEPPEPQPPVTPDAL
UniProt Q9NZJ5, residues 30-1116: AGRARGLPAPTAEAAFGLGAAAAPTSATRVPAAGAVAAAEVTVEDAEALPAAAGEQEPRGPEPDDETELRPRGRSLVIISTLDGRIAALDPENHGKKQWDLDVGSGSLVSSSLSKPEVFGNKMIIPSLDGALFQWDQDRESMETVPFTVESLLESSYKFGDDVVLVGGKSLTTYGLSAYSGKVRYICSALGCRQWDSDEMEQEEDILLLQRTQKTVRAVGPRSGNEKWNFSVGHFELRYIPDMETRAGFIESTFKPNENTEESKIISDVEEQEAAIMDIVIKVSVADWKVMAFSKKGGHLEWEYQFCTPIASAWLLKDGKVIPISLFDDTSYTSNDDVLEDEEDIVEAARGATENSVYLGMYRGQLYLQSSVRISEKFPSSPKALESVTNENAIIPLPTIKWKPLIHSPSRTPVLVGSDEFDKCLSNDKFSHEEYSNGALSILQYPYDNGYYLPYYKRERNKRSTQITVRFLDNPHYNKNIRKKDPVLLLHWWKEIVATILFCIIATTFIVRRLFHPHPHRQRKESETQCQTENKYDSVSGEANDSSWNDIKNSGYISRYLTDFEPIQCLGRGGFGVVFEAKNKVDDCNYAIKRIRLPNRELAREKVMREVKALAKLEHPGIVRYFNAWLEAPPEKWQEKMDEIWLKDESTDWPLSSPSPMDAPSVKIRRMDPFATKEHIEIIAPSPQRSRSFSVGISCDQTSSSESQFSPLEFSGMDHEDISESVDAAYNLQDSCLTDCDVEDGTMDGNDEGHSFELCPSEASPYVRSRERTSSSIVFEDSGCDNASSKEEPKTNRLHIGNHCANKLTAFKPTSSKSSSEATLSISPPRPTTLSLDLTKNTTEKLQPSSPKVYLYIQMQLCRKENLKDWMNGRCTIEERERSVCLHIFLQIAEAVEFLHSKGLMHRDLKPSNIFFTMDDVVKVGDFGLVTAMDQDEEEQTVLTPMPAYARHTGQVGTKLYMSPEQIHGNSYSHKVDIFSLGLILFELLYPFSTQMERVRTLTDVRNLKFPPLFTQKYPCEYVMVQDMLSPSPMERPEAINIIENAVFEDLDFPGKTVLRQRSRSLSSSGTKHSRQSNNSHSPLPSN
UniProt P40939, residues 37-763: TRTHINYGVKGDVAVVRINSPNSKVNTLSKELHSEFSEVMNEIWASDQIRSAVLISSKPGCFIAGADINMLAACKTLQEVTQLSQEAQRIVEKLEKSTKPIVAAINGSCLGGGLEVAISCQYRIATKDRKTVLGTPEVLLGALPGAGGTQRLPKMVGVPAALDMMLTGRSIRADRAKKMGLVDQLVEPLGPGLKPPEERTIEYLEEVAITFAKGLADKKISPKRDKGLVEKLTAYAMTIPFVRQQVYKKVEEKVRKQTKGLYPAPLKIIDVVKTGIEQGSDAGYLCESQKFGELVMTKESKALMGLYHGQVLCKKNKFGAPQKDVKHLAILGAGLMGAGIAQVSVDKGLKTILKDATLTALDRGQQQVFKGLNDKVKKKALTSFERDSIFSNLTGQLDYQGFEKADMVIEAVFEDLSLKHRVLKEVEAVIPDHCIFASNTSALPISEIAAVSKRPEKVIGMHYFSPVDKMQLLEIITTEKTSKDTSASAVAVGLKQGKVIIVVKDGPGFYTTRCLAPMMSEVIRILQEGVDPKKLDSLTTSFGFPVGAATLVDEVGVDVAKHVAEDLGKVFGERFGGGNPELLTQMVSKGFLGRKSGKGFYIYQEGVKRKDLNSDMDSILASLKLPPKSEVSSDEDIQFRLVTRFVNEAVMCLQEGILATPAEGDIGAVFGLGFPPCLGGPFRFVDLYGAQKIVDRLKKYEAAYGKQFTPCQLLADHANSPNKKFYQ
UniProt P52732: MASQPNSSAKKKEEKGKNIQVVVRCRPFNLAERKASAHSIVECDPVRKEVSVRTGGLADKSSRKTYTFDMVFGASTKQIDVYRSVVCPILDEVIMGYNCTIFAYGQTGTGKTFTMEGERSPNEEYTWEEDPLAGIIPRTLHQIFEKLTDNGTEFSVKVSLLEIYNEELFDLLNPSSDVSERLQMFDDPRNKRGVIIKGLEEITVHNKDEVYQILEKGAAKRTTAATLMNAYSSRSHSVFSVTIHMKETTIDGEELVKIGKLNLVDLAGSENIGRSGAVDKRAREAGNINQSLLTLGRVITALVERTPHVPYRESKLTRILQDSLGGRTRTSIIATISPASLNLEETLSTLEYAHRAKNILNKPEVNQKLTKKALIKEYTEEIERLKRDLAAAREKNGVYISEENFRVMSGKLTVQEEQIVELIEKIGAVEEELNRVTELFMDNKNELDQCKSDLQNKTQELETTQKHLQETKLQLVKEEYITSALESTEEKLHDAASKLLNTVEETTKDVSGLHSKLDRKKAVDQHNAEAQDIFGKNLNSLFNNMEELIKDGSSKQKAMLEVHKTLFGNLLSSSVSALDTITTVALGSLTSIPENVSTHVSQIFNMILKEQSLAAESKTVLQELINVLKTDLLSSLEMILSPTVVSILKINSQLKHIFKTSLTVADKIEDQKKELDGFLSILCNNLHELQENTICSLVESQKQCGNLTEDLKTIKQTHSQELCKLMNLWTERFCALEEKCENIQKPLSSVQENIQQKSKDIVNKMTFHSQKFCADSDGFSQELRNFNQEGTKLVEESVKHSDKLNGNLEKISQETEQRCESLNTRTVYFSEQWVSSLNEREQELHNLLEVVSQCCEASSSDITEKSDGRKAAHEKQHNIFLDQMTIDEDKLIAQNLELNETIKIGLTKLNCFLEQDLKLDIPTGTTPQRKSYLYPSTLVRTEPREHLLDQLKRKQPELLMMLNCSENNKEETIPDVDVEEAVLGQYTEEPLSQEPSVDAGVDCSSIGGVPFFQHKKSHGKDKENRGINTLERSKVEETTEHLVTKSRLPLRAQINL
UniProt Q9UGP8: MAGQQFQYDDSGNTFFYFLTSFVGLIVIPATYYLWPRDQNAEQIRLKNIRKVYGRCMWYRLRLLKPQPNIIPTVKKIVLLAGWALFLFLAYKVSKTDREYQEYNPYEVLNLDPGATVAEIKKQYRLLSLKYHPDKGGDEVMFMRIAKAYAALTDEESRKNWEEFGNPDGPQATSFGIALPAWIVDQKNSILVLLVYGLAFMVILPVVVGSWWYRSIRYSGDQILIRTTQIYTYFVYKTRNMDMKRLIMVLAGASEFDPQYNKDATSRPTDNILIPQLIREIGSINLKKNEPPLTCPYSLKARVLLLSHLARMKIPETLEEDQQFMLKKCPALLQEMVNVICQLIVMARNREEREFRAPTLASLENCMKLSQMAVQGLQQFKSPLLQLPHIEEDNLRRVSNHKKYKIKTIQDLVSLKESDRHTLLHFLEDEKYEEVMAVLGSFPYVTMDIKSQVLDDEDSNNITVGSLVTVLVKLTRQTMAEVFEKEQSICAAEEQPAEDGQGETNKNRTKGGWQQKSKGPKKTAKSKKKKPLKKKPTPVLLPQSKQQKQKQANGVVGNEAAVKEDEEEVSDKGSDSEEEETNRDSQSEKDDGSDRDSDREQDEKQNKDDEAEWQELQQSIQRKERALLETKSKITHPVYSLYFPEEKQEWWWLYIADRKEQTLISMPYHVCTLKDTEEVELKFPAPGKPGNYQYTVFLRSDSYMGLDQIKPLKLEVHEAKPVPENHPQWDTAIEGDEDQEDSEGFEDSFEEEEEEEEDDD

Legend:
Assay in all cases: affinity purification with mass spectrometry
[1] = molecular target: full length IRE1 (triple FLAG tagged) (UniProt O75460)
[2] = molecular target: full length PERK (triple FLAG tagged) (UniProt Q9NZJ5)
[3] = molecular target: full length PERK (triple FLAG tagged) (UniProt Q9NZJ5); remark: listed apart in the source
[4] = molecular target: full length IRE1 (triple FLAG tagged) (UniProt O75460); remark: listed apart in the source

binding [1]	binding [2]	binding [3]	binding [4]	Molecule
–	binds	–	–	ECHA (from UniProt P40939 37-763)
–	binds	–	–	PRKDC (from UniProt P78527 1-4128)
–	–	binds	binds	GCN1 (from UniProt Q92616 1-2671)

The remaining lines, values behind:

Molecule	binding [1]	binding [2]	binding [3]	binding [4]
ITPR3 (from UniProt Q14573 1-2671)	binds	–	–	–
TERA (from UniProt P55072 1-806)	binds	binds	–	–
KIF11 (from UniProt P52732 1-1056)	–	–	binds	binds
SEC63 (from UniProt Q9UGP8 1-760)	binds	–	–	binds
RPN1 (protein, UniProt P04843 24-607) ASSEAPPLINEDVKRTVDLSSHLAKVTAEVVLAHLGGGSTSRATSFLLALEPELEARLAHLGVQVKGEDEEENNLEVRETKIKGKSGRFFTVKLPVALDPGAKISVIVETVYTHVLHPYPTQITQSEKQFVVFEGNHYFYSPYPTKTQTMRVKLASRNVESYTKLGNPTRSEDLLDYGPFRDVPAYSQDTFKVHYENNSPFLTITSMTRVIEVSHWGNIAVEENVDLKHTGAVLKGPFSRYDYQRQPDSGISSIRSFKTILPAAAQDVYYRDEIGNVSTSHLLILDDSVEMEIRPRFPLFGGWKTHYIVGYNLPSYEYLYNLGDQYALKMRFVDHVFDEQVIDSLTVKIILPEGAKNIEIDSPYEISRAPDELHYTYLDTFGRPVIVAYKKNLVEQHIQDIVVHYTFNKVLMLQEPLLVVAAFYILFFTVIIYVRLDFSITKDPAAEARMKVACITEQVLTLVNKRIGLYRHFDETVNRYKQSRDISTLNSGKKSLETEHKALTSEIALLQSRLKTEGSDLCDRVSEMQKLDAQVKELVLKSAVEAERLVAGKLKKDTYIENEKLISGKRQELVTKIDHILDAL	–	–	binds	binds

Read-outs that look alike come from different tables or passages of the source. Results are given in words; binding and its absence hold for the method and conditions named. Binding seen in cells or lysates may run through a third protein. A yes stands for co-enrichment or nearness to the bait. Other partners may have been found.
